Measured values taken from article PMC13386968.
No constants are given. Whether binding was seen depends on the method and setting. Binding seen in cells or lysates may run through a third protein. Some entries that bind do so weakly or less than the wild type.

Amino acid sequences for entries named in this document (tags omitted). A change or cut given only in a name is not applied to a line headed by its entry.
UniProt Q01628: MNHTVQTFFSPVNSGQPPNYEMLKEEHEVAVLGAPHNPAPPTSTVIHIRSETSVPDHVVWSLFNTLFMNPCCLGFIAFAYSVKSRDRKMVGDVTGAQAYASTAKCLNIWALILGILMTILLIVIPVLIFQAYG
UniProt Q01629: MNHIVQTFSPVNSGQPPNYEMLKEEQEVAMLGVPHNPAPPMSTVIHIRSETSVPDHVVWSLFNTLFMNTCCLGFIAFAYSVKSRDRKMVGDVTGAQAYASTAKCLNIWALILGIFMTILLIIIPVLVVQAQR
UniProt P13164: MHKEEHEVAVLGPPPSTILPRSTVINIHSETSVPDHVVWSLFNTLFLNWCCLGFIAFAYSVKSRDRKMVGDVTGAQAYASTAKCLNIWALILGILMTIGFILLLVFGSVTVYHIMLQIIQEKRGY

Tests used:
[1] = molecular target: endogenous IFITM3 (human (endogenous in HEK293T, HeLa and primary human nasal epithelial cells)) (UniProt Q01628); assay: proximity ligation; HEK293T untreated or treated with 100 units of IFNb for 18 h, fixed and permeabilized; anti-IFITM1 and anti-IFITM3; endogenous proteins
[2] = molecular target: endogenous IFITM3 (human (endogenous in HEK293T, HeLa and primary human nasal epithelial cells)) (UniProt Q01628); assay: co-IP; anti-IFITM3 immunoprecipitation from lysates of HEK293T untreated or treated with 100 units of IFNb for 18 h; immunoblot with anti-IFITM1
[3] = molecular target: endogenous IFITM2 (human (endogenous in HeLa)) (UniProt Q01629); assay: co-IP; anti-IFITM2 immunoprecipitation from HeLa cells, untreated or interferon-treated; endogenous proteins (Fig. S1B)
FLAG-IFITM3 WT (human) [4] = molecular target: FLAG-IFITM3 WT (human) (UniProt Q01628); assay: co-IP; anti-FLAG immunoprecipitation from lysates of HEK293T stably expressing FLAG-IFITM3 WT or G95L; immunoblot with anti-IFITM1; 1% Triton X-100, 150 mM NaCl, 4°C
FLAG-IFITM3 G95L (human) [5] = molecular target: FLAG-IFITM3 G95L (human) (UniProt Q01628); assay: as above
[6] = molecular target: endogenous IFITM3 (human (endogenous in HEK293T, HeLa and primary human nasal epithelial cells)) (UniProt Q01628); assay: co-IP; anti-IFITM3 immunoprecipitation from lysates of HeLa untreated or treated with 100 units of IFNb for 18 h; immunoblot with anti-IFITM1
[7] = molecular target: endogenous IFITM3 (human (endogenous in HEK293T, HeLa and primary human nasal epithelial cells)) (UniProt Q01628); assay: proximity ligation; HeLa and HeLa IFITM3 knockout cells, fixed and permeabilized; anti-IFITM1 and anti-IFITM3; endogenous proteins
[8] = molecular target: endogenous IFITM3 (human (endogenous in HEK293T, HeLa and primary human nasal epithelial cells)) (UniProt Q01628); assay: co-IP; IFITM3 immunoprecipitated from primary human nasal epithelial cells, interferon-treated; endogenous proteins (Fig. S2A)
FLAG-IFITM3 WT (human) [9] = molecular target: FLAG-IFITM3 WT (human) (UniProt Q01628); assay: proximity ligation; HEK293T transiently transfected with FLAG-IFITM1 WT and FLAG-IFITM3 WT or G95L, fixed and permeabilized; anti-IFITM1 and anti-IFITM3; confocal microscopy
FLAG-IFITM3 G95L (human) [10] = molecular target: FLAG-IFITM3 G95L (human) (UniProt Q01628); assay: as above

binding [1]	binding [2]	binding [3]	binding (FLAG-IFITM3 WT (human) [4])	binding (FLAG-IFITM3 G95L (human) [5])	binding [6]	binding [7]	binding [8]	binding (FLAG-IFITM3 WT (human) [9])	binding (FLAG-IFITM3 G95L (human) [10])	Substance
binds	binds	binds	binds	binds	binds	binds	binds			endogenous IFITM1 (from UniProt P13164 1-125)
								binds	binds	FLAG-IFITM1 WT (from UniProt P13164 1-125)
		binds								endogenous IFITM3 (from UniProt Q01628 1-133)
